Consider 1 substance from patent US5952530A, “Separation processes” (Union Carbide Chemicals & Plastics Technology Corporation, priority 1998, dated 1999).

The series can be described thus: Rhodium remaining in the polar phase after extraction. The class given is physicochemical.

On to rhodium, for which the “Final [Rhodium]” value by setting is: (Ligand B 0.8 wt%, 223 ppm rhodium, polar solvent A (anhydrous acetonitrile), Example 33) 5 parts per million; (Ligand B 0.8 wt%, 223 ppm rhodium, polar solvent C (DMSO), Example 35) 2 parts per million; (Ligand B 0.8 wt%, 223 ppm rhodium, polar solvent W (acetonitrile, 1 wt% water), Example 34) 1 parts per million; (Ligand C 0.2 wt%, valeraldehyde 16.1 wt%, acetonitrile/catalyst 0.56, initial rhodium 38 ppm, Example 37) 4 parts per million; (Ligand C 0.5 wt%, valeraldehyde 37.3 wt%, acetonitrile/catalyst 1.7, initial rhodium 99 ppm, Example 36) 5 parts per million; (Ligand E, butyraldehyde 5.2, polar solvent A, Example 29) 196 ppb. Also, the “Final [Rhodium]” value reads like this: (Ligand E, butyraldehyde 39.2, polar solvent A, Example 30) 1628 ppb; (Ligand E, no aldehyde, polar solvent A (anhydrous acetonitrile), Example 26) 237 ppb; (Ligand E, no aldehyde, polar solvent C (DMSO), Example 28) 1148 ppb; (Ligand E, no aldehyde, polar solvent W (acetonitrile, 1 wt% water), Example 27) 381 ppb; (Ligand E, valeraldehyde 5.21, polar solvent A, Example 32) 196 ppb; (Ligand E, valeraldehyde 24.3, polar solvent A, Example 31) 252 ppb. Also, the “Final [Rhodium]” value (Ligand H 0.4 wt%, valeraldehyde 34.2 wt%, acetonitrile/catalyst 0.83, initial rhodium 121 ppm, Example 38) was found to be 22 parts per million.
